# The supplement of paper PMC10849652
# Sequences of proteins named here, by UniProt entry; tags and fusion partners are left off. A change or cut given only in a name is not applied to a line headed by its entry.
# UniProt P48553, whole entry, looked up: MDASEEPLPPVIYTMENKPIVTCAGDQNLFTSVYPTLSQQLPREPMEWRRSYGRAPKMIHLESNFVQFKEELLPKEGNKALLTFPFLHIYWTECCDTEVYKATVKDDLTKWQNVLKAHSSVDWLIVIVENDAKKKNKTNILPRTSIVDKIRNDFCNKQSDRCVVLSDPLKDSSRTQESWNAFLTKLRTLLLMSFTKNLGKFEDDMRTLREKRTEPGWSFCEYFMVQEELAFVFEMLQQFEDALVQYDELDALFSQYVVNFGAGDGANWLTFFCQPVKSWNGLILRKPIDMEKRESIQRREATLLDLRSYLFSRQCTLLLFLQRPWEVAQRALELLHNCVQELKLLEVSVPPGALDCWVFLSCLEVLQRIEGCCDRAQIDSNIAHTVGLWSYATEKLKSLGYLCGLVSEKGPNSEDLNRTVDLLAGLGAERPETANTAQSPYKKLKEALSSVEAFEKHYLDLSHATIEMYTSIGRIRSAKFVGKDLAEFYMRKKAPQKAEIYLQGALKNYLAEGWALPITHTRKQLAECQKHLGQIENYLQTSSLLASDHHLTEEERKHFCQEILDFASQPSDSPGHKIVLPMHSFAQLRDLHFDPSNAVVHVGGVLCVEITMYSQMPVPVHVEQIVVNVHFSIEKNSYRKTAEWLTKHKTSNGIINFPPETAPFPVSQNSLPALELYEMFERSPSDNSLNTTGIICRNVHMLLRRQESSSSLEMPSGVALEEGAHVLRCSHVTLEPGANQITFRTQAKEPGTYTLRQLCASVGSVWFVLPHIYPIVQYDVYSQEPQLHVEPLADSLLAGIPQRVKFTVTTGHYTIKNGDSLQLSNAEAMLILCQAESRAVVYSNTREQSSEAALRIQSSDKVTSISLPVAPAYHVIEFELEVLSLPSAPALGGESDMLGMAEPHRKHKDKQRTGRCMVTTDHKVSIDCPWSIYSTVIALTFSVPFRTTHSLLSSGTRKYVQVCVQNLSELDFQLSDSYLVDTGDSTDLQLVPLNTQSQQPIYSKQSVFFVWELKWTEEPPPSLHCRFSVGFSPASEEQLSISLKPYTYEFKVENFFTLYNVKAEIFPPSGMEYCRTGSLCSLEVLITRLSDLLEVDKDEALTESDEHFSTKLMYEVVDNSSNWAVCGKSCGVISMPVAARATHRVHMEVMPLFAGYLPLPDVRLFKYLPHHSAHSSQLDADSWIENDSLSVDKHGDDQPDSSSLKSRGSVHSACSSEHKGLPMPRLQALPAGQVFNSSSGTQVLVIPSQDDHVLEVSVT
# UniProt Q7Z2T5: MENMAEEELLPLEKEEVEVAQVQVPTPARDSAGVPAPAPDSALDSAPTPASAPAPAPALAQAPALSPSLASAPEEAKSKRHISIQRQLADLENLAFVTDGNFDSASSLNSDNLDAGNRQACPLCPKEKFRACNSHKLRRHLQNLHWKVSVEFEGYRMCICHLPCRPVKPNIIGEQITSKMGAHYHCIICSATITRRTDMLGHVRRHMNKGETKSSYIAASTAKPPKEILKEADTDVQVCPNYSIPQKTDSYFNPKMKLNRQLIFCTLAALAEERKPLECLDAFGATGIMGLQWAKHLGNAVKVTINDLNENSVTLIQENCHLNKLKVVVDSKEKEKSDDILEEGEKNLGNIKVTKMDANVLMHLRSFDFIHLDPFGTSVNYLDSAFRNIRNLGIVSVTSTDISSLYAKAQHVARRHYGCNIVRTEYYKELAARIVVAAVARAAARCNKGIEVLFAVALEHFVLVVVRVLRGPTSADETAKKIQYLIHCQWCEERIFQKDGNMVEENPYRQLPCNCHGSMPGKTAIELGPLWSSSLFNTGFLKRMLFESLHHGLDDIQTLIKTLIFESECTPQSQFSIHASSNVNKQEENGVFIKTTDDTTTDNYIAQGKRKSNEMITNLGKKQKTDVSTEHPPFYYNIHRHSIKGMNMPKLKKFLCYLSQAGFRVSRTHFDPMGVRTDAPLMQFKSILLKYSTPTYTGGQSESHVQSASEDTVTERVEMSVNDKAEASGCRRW
# UniProt Q8NG68: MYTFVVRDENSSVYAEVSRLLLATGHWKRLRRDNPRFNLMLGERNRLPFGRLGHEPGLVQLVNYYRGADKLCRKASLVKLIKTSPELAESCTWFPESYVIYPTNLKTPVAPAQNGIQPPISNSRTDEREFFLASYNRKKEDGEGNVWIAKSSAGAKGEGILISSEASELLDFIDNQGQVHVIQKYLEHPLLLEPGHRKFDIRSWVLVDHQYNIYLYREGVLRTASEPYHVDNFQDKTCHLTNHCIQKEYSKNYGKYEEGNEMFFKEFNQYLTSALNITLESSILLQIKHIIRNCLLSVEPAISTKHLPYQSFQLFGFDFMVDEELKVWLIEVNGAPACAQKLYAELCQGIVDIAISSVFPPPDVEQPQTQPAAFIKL
# UniProt Q8NG11: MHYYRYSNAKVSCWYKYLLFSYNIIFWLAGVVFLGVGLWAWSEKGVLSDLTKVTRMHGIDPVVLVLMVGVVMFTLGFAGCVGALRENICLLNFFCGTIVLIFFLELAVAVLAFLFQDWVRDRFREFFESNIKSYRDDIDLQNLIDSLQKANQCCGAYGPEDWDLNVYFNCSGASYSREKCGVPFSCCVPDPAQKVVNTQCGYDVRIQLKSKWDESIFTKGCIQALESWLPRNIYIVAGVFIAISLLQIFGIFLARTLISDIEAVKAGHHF
# UniProt Q96AE7: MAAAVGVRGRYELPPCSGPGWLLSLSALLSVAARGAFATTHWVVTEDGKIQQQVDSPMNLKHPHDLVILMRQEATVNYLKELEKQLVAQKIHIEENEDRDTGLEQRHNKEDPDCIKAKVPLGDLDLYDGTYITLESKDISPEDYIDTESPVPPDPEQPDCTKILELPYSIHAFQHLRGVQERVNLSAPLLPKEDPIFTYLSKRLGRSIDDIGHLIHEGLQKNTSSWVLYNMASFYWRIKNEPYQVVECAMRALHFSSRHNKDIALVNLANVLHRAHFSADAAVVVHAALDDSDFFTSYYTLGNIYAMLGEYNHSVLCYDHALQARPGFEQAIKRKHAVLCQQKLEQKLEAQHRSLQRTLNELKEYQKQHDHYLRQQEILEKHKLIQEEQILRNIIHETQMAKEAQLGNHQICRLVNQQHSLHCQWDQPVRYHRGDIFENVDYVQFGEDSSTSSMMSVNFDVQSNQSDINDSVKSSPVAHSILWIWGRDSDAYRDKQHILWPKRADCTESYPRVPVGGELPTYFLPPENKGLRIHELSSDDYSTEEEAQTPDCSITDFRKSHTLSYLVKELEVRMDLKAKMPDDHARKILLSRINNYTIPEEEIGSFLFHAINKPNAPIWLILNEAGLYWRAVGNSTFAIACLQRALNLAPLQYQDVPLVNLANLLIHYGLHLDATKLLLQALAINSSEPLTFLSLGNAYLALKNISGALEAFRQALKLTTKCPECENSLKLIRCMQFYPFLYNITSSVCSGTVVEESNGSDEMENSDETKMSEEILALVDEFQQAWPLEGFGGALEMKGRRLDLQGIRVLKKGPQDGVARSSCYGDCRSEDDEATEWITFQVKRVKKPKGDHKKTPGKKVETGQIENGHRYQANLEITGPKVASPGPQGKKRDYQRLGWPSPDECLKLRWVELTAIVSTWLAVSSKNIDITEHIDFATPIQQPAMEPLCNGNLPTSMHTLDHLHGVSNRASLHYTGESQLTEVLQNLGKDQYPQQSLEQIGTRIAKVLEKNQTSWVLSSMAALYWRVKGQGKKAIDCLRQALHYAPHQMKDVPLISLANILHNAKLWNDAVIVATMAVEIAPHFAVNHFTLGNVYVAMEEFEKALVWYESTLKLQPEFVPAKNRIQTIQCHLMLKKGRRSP
# UniProt Q9BRZ2: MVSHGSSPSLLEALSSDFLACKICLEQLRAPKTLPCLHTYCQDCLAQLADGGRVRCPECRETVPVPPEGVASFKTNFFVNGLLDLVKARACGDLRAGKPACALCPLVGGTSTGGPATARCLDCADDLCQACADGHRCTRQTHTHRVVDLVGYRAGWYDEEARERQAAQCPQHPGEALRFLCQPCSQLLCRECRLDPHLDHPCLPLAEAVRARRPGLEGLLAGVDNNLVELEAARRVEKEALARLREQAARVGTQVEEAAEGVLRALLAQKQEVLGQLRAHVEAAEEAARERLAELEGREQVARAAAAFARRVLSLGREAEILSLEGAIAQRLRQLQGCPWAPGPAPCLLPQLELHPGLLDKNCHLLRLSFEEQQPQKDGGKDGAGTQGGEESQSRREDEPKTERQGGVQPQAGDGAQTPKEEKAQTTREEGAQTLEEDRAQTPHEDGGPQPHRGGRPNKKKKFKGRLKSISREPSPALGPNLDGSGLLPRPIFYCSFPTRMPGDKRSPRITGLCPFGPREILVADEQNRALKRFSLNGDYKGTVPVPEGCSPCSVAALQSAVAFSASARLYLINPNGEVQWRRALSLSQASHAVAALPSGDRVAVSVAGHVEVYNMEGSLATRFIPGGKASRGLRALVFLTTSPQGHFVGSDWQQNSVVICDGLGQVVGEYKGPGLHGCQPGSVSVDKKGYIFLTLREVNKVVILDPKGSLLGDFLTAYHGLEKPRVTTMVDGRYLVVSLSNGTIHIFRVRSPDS
# UniProt Q9C037: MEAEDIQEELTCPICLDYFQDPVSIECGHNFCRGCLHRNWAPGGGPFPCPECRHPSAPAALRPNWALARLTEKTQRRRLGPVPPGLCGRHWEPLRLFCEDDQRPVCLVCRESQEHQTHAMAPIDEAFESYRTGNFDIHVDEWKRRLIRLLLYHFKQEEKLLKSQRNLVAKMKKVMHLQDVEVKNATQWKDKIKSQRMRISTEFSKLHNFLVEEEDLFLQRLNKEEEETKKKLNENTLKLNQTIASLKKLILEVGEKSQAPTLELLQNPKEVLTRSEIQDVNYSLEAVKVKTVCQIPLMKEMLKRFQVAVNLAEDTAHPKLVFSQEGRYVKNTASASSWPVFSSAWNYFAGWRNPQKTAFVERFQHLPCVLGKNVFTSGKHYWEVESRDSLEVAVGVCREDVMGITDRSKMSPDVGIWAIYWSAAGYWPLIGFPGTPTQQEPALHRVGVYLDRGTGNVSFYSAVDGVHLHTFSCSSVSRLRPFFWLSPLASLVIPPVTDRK
# UniProt Q9UL33, whole entry, looked up: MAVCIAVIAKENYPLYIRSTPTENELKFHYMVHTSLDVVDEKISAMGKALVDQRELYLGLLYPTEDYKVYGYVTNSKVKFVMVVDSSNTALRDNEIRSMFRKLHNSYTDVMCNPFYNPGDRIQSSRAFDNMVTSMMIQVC
# UniProt Q8TBZ6: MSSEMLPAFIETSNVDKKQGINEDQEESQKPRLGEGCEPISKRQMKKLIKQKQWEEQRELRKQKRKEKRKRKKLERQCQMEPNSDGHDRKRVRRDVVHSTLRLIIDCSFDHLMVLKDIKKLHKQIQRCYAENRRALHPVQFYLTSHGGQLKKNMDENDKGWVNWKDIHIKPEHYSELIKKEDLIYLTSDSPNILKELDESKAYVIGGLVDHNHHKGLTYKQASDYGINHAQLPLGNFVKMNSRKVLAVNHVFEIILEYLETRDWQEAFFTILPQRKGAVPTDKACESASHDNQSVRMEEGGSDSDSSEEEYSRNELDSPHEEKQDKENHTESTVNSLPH
# UniProt Q15645: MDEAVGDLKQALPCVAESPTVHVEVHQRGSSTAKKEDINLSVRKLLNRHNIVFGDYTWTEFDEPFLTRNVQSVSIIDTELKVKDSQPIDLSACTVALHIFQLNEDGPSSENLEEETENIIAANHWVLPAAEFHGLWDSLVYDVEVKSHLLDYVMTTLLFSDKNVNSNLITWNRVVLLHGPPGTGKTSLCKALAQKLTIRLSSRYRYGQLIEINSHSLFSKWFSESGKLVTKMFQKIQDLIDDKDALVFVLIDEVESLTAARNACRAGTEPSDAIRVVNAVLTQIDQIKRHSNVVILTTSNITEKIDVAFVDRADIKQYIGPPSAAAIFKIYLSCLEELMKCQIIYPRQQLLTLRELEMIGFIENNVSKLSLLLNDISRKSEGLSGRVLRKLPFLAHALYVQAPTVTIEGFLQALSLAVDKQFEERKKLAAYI
# UniProt Q6NXR4: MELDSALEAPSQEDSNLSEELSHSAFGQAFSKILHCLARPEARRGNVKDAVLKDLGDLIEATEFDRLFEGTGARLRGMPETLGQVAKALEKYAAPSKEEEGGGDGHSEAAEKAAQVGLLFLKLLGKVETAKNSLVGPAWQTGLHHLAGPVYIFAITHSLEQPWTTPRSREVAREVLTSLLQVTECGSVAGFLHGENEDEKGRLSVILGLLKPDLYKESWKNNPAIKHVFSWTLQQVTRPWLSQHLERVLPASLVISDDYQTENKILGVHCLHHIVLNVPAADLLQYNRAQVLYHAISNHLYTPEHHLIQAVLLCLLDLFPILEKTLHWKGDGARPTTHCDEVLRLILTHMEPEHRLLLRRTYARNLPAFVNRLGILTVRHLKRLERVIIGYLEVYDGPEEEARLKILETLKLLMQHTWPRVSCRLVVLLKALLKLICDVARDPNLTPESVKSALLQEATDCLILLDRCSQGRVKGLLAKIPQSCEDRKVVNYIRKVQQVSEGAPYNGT
# The other results are listed elsewhere or left out.
# Columns and labels:
# Test in all cases: log2 fold change, soluble protein after heating vs DMSO (PISA); higher = thermal stabilisation; K562 lysate, 10 uM; active = over 0.2 and 3.5 SD of the protein, either way, in both replicates (recomputed)
# erlotinib = compound: C#Cc1cccc(Nc2ncnc3cc(OCCOC)c(OCCOC)cc23)c1 [erlotinib]
# Method in brief: (§1)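 Values give the log-two fold change in thermal stability against solvent controls, from duplicates. Crude K562 extract at 1 mg/mL protein, made by dounce homogenisation in PBS pH 7.4 with 1 mM MgCl2, was treated with 10 μM compound for 30 min. After 3 min heating across 48°C-58°C, aliquots were pooled, adjusted to 0.5% NP-40 at 4°C and centrifuged at 21,000xg for 90 min. The supernatant was measured by TMTpro 16plex LC-MS/MS with channel sums equalised.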
# [1] = compound: C/C(=N\NC(=O)C1=CC(=CC=C1)S(=O)(=O)N2CCOCC2)/C3=C(C=CC(=C3)Cl)O
# Method in brief: as §1
# [2] = compound: C1=CC(=CC=C1C2=NC3=C(N2)C=C(C=C3)C(=O)N)OC4=CC=C(C=C4)Cl
# Method in brief: as §1
# [3] = compound: C1=CC2=C(C=CC(=C2)/C=C\3/C(=O)NC(=NCC4=CC=CS4)S3)N=C1
# Method in brief: as §1
# [4] = compound: C1=CC2=NC=CN=C2C=C1/C=C/3\C(=O)NC(=O)S3
# Method in brief: as §1
# [5] = compound: C1=CC=C(C=C1)C2=NC(=C(N2)C3=CC=NC=C3)C4=CC(=C(C=C4)Cl)O
# Method in brief: as §1
# [6] = compound: C1=CC=C2C(=C1)C3=NNC4=CC=CC(=C43)C2=O
# Method in brief: as §1
# [7] = compound: C1CCN(C1)C(=O)NC2=CC=CC(=C2)NC3=NC=C(C(=N3)NCCC4=CN=CN4)Br
# Method in brief: as §1
# [8] = compound: C1CN(CCC1(CC2=CC=C(C=C2)Cl)N)C3=NC=NC4=C3C=CN4
# Method in brief: as §1
# IRAK-1-4 Inhibitor I = compound: C1COCCN1CCN2C3=CC=CC=C3N=C2NC(=O)C4=CC(=CC=C4)[N+](=O)[O-] [IRAK-1-4 Inhibitor I]
# Method in brief: as §1
# ibrutinib = compound: C=CC(=O)N1CCC[C@@H](n2nc(-c3ccc(Oc4ccccc4)cc3)c3c(N)ncnc32)C1 [ibrutinib]
# Method in brief: as §1
# [9] = compound: CC(=O)c1cnc2ccc(-c3cc(Cl)c(O)c(Cl)c3)nc2c1N[C@H]1CC[C@H](CN(C)C)CC1
# Method in brief: as §1
# ralimetinib = compound: CC(C)(C)Cn1c(N)nc2ccc(-c3[nH]c(C(C)(C)C)nc3-c3ccc(F)cc3)nc21 [ralimetinib]
# Method in brief: as §1
# [10] = compound: CC(C)(O)CC(=O)NCCn1ccc2ncnc(Nc3ccc(Oc4cccc(C(F)(F)F)c4)c(Cl)c3)c21
# Method in brief: as §1
# [11] = compound: CC(C)C1=C2N=C(C=C(N2N=C1)NCC3=CC=CC=C3)NCCCCCCN
# Method in brief: as §1
# [12] = compound: CC1=C(C(CC(=O)N1)C2=CC=C(C=C2)C(F)(F)F)C(=O)NC3=C(C=C4C(=C3)C=NN4)F
# Method in brief: as §1
# [13] = compound: CC1=C(C2=C(C=C1)C(=O)C3=CC=CC=C3N2CCCN)C
# Method in brief: as §1
# [14] = compound: CC1=C(C=C(C=C1)NC(=O)C2=CC(=CC=C2)C(C)(C)C#N)NC3=CC4=C(C=C3)N=CN(C4=O)C
# Method in brief: as §1
# [15] = compound: CC1=C(C=C(C=C1)NC(=O)C2=CC(=CC=C2)N(C)C)NC(=O)C3=CC=C(C=C3)O
# Method in brief: as §1
# [16] = compound: CC1=CC=C(C=C1)SC2=C3C=C(SC3=CN=C2)C(=O)N
# Method in brief: as §1
Target,log2 fold change (erlotinib),log2 fold change [1],log2 fold change [2],log2 fold change [3],log2 fold change [4],log2 fold change [5],log2 fold change [6],log2 fold change [7],log2 fold change [8],log2 fold change (IRAK-1-4 Inhibitor I),log2 fold change (ibrutinib),log2 fold change [9],log2 fold change (ralimetinib),log2 fold change [10],log2 fold change [11],log2 fold change [12],log2 fold change [13],log2 fold change [14],log2 fold change [15],log2 fold change [16]
TRAPPC10 (UniProt P48553),inactive: 0.066,inactive: 0.031,inactive: 0.027,inactive: 0.045,inactive: 0.018,inactive: 0.004,inactive: -0.058,inactive: 0.057,inactive: 0.005,inactive: 0.013,inactive: -0.006,inactive: -0.004,inactive: 0.025,inactive: -0.03,inactive: 0.027,inactive: 0.002,inactive: -0.029,inactive: 0.019,inactive: 0.02,inactive: -0.004
TRAPPC5 (UniProt Q8IUR0),inactive: 0,inactive: 0.019,inactive: -0.025,inactive: 0.037,inactive: -0.025,inactive: -0.05,inactive: -0.048,inactive: -0.018,inactive: -0.007,inactive: -0.054,inactive: -0.007,inactive: 0.006,inactive: 0.063,inactive: -0.001,inactive: -0.002,inactive: -0.009,inactive: 0.05,inactive: -0.062,inactive: 0.04,inactive: -0.005
TRMT1L (UniProt Q7Z2T5),inactive: 0.019,inactive: -0.034,inactive: 0.036,inactive: 0.016,inactive: -0.031,inactive: -0.005,inactive: -0.015,inactive: -0.024,inactive: 0.002,inactive: 0.002,inactive: -0.024,inactive: 0.016,inactive: 0.017,inactive: -0.009,inactive: -0.002,inactive: -0.027,inactive: -0.013,inactive: 0.003,inactive: 0.028,inactive: 0.022
TTL (UniProt Q8NG68),inactive: 0.056,inactive: 0.01,inactive: 0,inactive: 0.019,inactive: -0.001,inactive: -0.027,inactive: 0.097,inactive: 0.006,inactive: -0.074,inactive: 0.019,inactive: 0.014,inactive: 0.101,inactive: -0.029,inactive: 0.037,inactive: 0.018,inactive: 0.016,inactive: -0.065,inactive: 0.063,inactive: 0.063,inactive: -0.074
TSPAN14 (UniProt Q8NG11),inactive: 0.042,inactive: -0.034,inactive: -0.022,inactive: -0.005,inactive: 0.04,inactive: -0.003,inactive: -0.047,inactive: 0.006,inactive: 0.033,inactive: -0.035,inactive: 0.039,inactive: 0.005,inactive: 0.016,inactive: 0.026,inactive: -0.019,inactive: 0.042,inactive: -0.02,inactive: 0.053,inactive: -0.016,inactive: -0.032
TTC17 (UniProt Q96AE7),inactive: 0.019,inactive: -0.067,inactive: -0.002,inactive: -0.008,inactive: 0.076,inactive: 0.003,inactive: -0.017,inactive: -0.023,inactive: 0,inactive: 0.029,inactive: 0.02,inactive: 0.052,inactive: 0.088,inactive: -0.046,inactive: -0.027,inactive: 0.098,inactive: -0.001,inactive: 0.019,inactive: 0.034,inactive: -0.008
TRRAP (UniProt Q9Y4A5),inactive: 0,inactive: -0.032,inactive: -0.013,inactive: 0.022,inactive: -0.012,inactive: 0.008,inactive: -0.052,inactive: -0.02,inactive: -0.004,inactive: 0.017,inactive: -0.031,inactive: -0.009,inactive: 0.045,inactive: -0.036,inactive: -0.02,inactive: 0.04,inactive: -0.012,inactive: -0.018,inactive: -0.011,inactive: 0.027
TTC27 (UniProt Q6P3X3),inactive: 0.017,inactive: 0.018,inactive: -0.043,inactive: 0.004,inactive: 0.007,inactive: -0.014,inactive: -0.028,inactive: -0.015,inactive: 0.006,inactive: -0.013,inactive: -0.025,inactive: 0.017,inactive: -0.012,inactive: 0.046,inactive: 0.02,inactive: 0,inactive: -0.011,inactive: -0.012,inactive: 0.034,inactive: 0.042
TRIM56 (UniProt Q9BRZ2),inactive: 0.053,inactive: -0.021,inactive: 0.021,inactive: -0.049,inactive: 0.141,inactive: -0.013,inactive: 0.033,inactive: 0.039,inactive: 0.003,inactive: 0.062,inactive: 0.023,inactive: 0.007,inactive: 0.028,inactive: 0.001,inactive: -0.03,inactive: 0,inactive: 0.002,inactive: -0.06,inactive: 0.014,inactive: 0.033
TRIM4 (UniProt Q9C037),inactive: 0.051,inactive: -0.13,inactive: -0.031,inactive: 0.026,inactive: -0.011,inactive: 0.083,inactive: 0.043,inactive: -0.087,inactive: -0.007,inactive: -0.003,inactive: -0.11,inactive: -0.024,inactive: 0.034,inactive: -0.034,inactive: 0.029,inactive: 0.061,inactive: 0.03,inactive: 0,inactive: 0,inactive: -0.029
TRAPPC2L (UniProt Q9UL33),inactive: -0.013,inactive: 0.036,inactive: -0.018,inactive: -0.025,inactive: -0.019,inactive: 0.021,inactive: -0.008,inactive: -0.022,inactive: 0.026,inactive: 0.002,inactive: 0,inactive: -0.032,inactive: 0.013,inactive: -0.043,inactive: 0.005,inactive: 0.153,inactive: 0.033,inactive: 0.021,inactive: 0.005,inactive: -0.007
TSPO (UniProt P30536),inactive: -0.101,inactive: 0.024,inactive: -0.034,inactive: -0.071,inactive: -0.024,inactive: 0.002,inactive: -0.057,inactive: -0.05,inactive: -0.019,inactive: 0.04,inactive: 0.033,inactive: 0.002,inactive: 0.062,inactive: -0.037,inactive: -0.031,inactive: -0.01,inactive: -0.022,inactive: 0,inactive: 0.039,inactive: 0.002
TRMT10A (UniProt Q8TBZ6),inactive: -0.003,inactive: -0.26,inactive: -0.007,inactive: -0.018,inactive: -0.024,inactive: 0.018,active: 0.252,inactive: -0.017,inactive: 0.044,inactive: 0.044,inactive: -0.002,inactive: -0.003,inactive: 0.021,inactive: -0.01,inactive: -0.033,inactive: 0.009,inactive: -0.031,inactive: 0.06,inactive: -0.022,inactive: 0.07
TRIP11 (UniProt Q15643),inactive: -0.053,inactive: 0.058,inactive: -0.016,inactive: 0.023,inactive: -0.024,inactive: -0.005,inactive: -0.035,inactive: -0.081,inactive: 0.022,inactive: 0.02,inactive: -0.032,inactive: -0.021,inactive: 0.003,inactive: -0.021,inactive: 0.017,inactive: 0.087,inactive: 0.004,inactive: -0.001,inactive: -0.006,inactive: -0.011
TRIP13 (UniProt Q15645),inactive: 0.034,inactive: -0.117,inactive: 0.007,inactive: 0.04,inactive: -0.034,inactive: 0.009,inactive: -0.038,inactive: 0,inactive: -0.002,inactive: 0.005,inactive: -0.025,inactive: -0.013,inactive: 0.039,inactive: 0.023,inactive: -0.022,inactive: -0.004,inactive: 0.006,inactive: 0.029,inactive: 0.045,inactive: 0.001
TTI2 (UniProt Q6NXR4),inactive: -0.003,inactive: 0.037,inactive: 0.023,inactive: 0.047,inactive: 0.013,inactive: 0.012,inactive: -0.015,inactive: -0.028,inactive: 0.007,inactive: 0.014,inactive: 0.012,inactive: 0.016,inactive: 0.019,inactive: -0.062,inactive: -0.004,inactive: -0.009,inactive: 0.018,inactive: -0.009,inactive: -0.015,inactive: -0.017

# Reformatted with tabs: part of the list above.
Target	log2 fold change (erlotinib)	log2 fold change [1]	log2 fold change [2]	log2 fold change [3]	log2 fold change [4]	log2 fold change [5]	log2 fold change [6]	log2 fold change [7]	log2 fold change [8]	log2 fold change (IRAK-1-4 Inhibitor I)	log2 fold change (ibrutinib)	log2 fold change [9]	log2 fold change (ralimetinib)	log2 fold change [10]	log2 fold change [11]	log2 fold change [12]	log2 fold change [13]	log2 fold change [14]	log2 fold change [15]	log2 fold change [16]
TTL (UniProt Q8NG68)	inactive: 0.056	inactive: 0.01	inactive: 0	inactive: 0.019	inactive: -0.001	inactive: -0.027	inactive: 0.097	inactive: 0.006	inactive: -0.074	inactive: 0.019	inactive: 0.014	inactive: 0.101	inactive: -0.029	inactive: 0.037	inactive: 0.018	inactive: 0.016	inactive: -0.065	inactive: 0.063	inactive: 0.063	inactive: -0.074
TRIM4 (UniProt Q9C037)	inactive: 0.051	inactive: -0.13	inactive: -0.031	inactive: 0.026	inactive: -0.011	inactive: 0.083	inactive: 0.043	inactive: -0.087	inactive: -0.007	inactive: -0.003	inactive: -0.11	inactive: -0.024	inactive: 0.034	inactive: -0.034	inactive: 0.029	inactive: 0.061	inactive: 0.03	inactive: 0	inactive: 0	inactive: -0.029
